# In all, about 33,000 sequences were measured (“E-score (-0.5 to 0.5)”: median about -0.0034, highest 2% from about 0.25 on). This is one part of the list.
# Target: T1, Yap3 (UniProt P38749)
# T1 sequence: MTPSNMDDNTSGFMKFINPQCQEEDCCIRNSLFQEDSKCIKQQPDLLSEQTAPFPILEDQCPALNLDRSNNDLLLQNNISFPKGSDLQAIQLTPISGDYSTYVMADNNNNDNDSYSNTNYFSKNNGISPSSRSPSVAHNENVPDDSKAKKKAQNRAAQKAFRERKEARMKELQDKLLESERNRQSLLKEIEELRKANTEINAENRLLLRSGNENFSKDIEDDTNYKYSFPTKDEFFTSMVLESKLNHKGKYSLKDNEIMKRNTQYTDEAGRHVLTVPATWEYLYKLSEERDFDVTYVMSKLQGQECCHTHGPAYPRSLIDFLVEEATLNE
# Test: PBM E-score (8-mer binding enrichment) (E-score (-0.5 to 0.5)); higher = stronger / more preferred TF binding
# Conditions: protein concentration: 100 nM; construct: GST-full length
# Outline: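 For each ungapped eight-base word taken together with its reverse complement, the Universal PBM Analysis Suite assigned an E-score. Binding data came from GST-tagged yeast transcription factors, applied at about 100-200 nM, on universal all-10-mer Agilent arrays made double-stranded by primer extension. Fluorescent anti-GST marked bound protein, and scans were normalised with masliner.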
row,Sequence,PBM E-score
1,CCAAGTTA,0.151
2,TTCCGAAA,-0.0107
3,ACGATTTG,0.0541
4,CTATTAGC,0.129
5,ACCTTCCG,0.0468
6,AAATGCCC,-0.181
7,AACTGGGT,-0.0982
8,GGTAAAGA,0.12
9,CTGTACCC,-0.331
10,ATTAAATG,0.266
11,AATGAGTA,0.33
12,GCGGTGCA,-0.284
13,ATAGCCAA,0.178
14,AATTTTAA,0.212
15,GGTTCGCA,-0.127
16,CTGGCTTA,-0.176
17,CGTCTGAA,-0.104
18,AAAGGCAC,-0.114
19,CGCGTCGA,0.0342
20,ACAGCACG,-0.0482
21,ACCGAGCG,-0.0624
22,CTAAAACC,0.0765
23,CGGCCTAG,-0.214
24,ACTACTCA,0.108
25,ACGTACGT,0.024

row,Sequence,PBM E-score
1,ATACAACG,0.187
2,ATCATTTC,0.203
3,AACACCAA,0.126
4,AGTACAAG,0.0503
5,CAAGCCAA,0.0602
6,GAGTAGCA,0.0529
7,CAGACTAC,-0.108
8,CTTAATTA,0.174
9,CAACCTTA,0.131
10,ATAGACTC,-0.227
11,TCCGTGCA,-0.0352
12,GTGATGGA,0.049
13,ATTAAAGA,0.177
14,ATGTTTGC,-0.0647
15,TCGTTCCA,-0.14
16,AGTACTGG,-0.128
17,ACATCGTA,-0.0454
18,ACATACGA,0.179
19,CGTTCCAC,-0.126
20,TAGTCCAA,-0.111
21,AGGCCTGG,-0.145
22,ACACAGCG,0.148
23,ACCTGGCT,-0.173
24,AACATGAC,0.245
25,CGTCGCGA,0.141

row,Sequence,PBM E-score
1,GCAGTATA,0.0674
2,GAGTACGA,-0.0103
3,GCCATGGA,-0.125
4,TCGGCTCA,-0.114
5,AGTCCATC,-0.118
6,GTCGCTTA,0.0677
7,GTGCCCTA,-0.101
8,AATCCCAG,0.057
9,CTAGCGAC,-0.105
10,TATCGGAA,0.0684
11,CTAACCAC,0.0836
12,ACTGCTTC,-0.0537
13,CGTTTGTC,-0.0669
14,GATTGCCC,0.0434
15,GATGCACC,-0.0762
16,AGGACTAG,-0.118
17,CGTCAAGC,-0.124
18,GTCCGTGA,-0.162
19,CACTCTGC,0.038
20,CGGGGGCC,-0.405
21,GGTCGGTA,0.0806
22,AGACTGAT,0.0259
23,GTGGACCA,0.0252
24,AATGTTCA,0.0495
25,CAAGAAGG,0.0713

# Shown as tab-separated lines: part of the list above.
row	Sequence	PBM E-score
9	CTAGCGAC	-0.105
10	TATCGGAA	0.0684
11	CTAACCAC	0.0836
25	CAAGAAGG	0.0713

# Further records.

row,Sequence,PBM E-score
1,AGAAAAAG,0.00052
2,CTGCCAAG,-0.169
3,GAAGGCCC,-0.237
4,CCTTCCCG,-0.249
5,GCGGGGAA,0.0207
6,AGGGAAGC,-0.108
7,TCGAGAAA,0.0318
8,AGTCAGGA,0.0736
9,GGTTGTAA,-0.0593
10,TCCTAGCA,0.0185
11,CCGAATGC,-0.118
12,TTCAAGAA,0.1
13,CGGGCCGA,-0.24
14,GCAGAAGA,-0.0769
15,AGACATAA,0.136
16,CCAGTACG,-0.102
17,ATTTTATG,0.21
18,CTACGTGC,-0.0924
19,CCGTATAG,0.0595
20,GTCTTTAA,0.0633
21,CTATTTAA,0.0559
22,ACTGCTCG,0.0537
23,TAGGAATA,0.0296
24,ACATAGCA,0.12
25,AGTTAAGG,0.127

row,Sequence,PBM E-score
1,ATCGCGGG,-0.0233
2,AGTCTGAG,-0.144
3,ATTGTTAG,0.153
4,GTATTCTA,0.109
5,CTGATGGC,-0.117
6,ACCAACGC,-0.135
7,AATTCGCG,0.0991
8,AGGATAAA,0.121
9,AGGAAACA,0.176
10,CCTTCTGC,-0.198
11,AATTTGTA,0.173
12,TAGCTCGA,0.022
13,GACGACCA,0.00521
14,ACAACATA,0.197
15,AATCAGCA,0.0716
16,ACACGACC,-0.0823
17,GTAGTGCA,0.123
18,AGACTTGG,-0.103
19,CCATCACG,0.00365
20,GGCATCAA,-0.285
21,CAAATAGG,0.0216
22,CTGCTCAC,-0.129
23,CTGTCAAC,0.104
24,GAACTGTA,0.208
25,ACCTGCGA,-0.132

row,Sequence,PBM E-score
1,CAAATTCG,0.107
2,GCAGAACC,-0.0873
3,TCAAAAGA,0.0523
4,CCGGCCTC,-0.244
5,CATCTCGA,0.0432
6,GCCGGTAA,0.0897
7,AACTAACT,0.0375
8,ATAGTTCC,0.155
9,AAAACCTG,-0.101
10,GATTCACA,0.00517
11,GTCTCAAA,-0.1
12,CAAAACCA,0.189
13,GAATCTTA,0.227
14,ATAAGTGC,0.063
15,GTCTTACA,-0.0632
16,ACAGCTTC,-0.0761
17,GTGGCTGA,-0.0435
18,GTAGGGAA,0.0975
19,CAAACCTC,-0.171
20,CGGGATGA,-0.0895
21,CAGTTTAG,-0.0276
22,CTCAAAAC,0.0422
23,CCCTCGTC,-0.0664
24,CGTCCTGA,-0.191
25,GACTCAAA,-0.0937

row,Sequence,PBM E-score
1,CTCTAAGA,0.0797
2,CTATTATC,0.146
3,AACGCTCA,-0.0423
4,CCACTTAG,0.00158
5,CCTGCCCC,-0.225
6,ATTCCGGC,-0.131
7,CAAACACC,-0.0241
8,GATGAGTA,0.181
9,CAGCGTCC,-0.0405
10,CAATCTGC,-0.0973
11,GCCTCAGC,-0.146
12,AATTATGC,0.273
13,CATCTATA,0.138
14,CCGCCCGG,-0.138
15,GAGCAGTA,0.0415
16,GCATTCGC,-0.162
17,AATGATCA,0.0663
18,AACGGTAC,0.238
19,CTCGTGTC,-0.0754
20,CTACTTTA,0.0863
21,TGAGTCAA,0.0132
22,AGCCAGCA,-0.168
23,AAACGCGG,0.252
24,ATGGCTAA,0.00804
25,ATAGCTAA,-0.0659

row,Sequence,PBM E-score
1,CTCTACAG,-0.0594
2,CAGTTCTA,-0.112
3,GGATGTAC,0.0205
4,AAGATTCT,-0.225
5,GTTCACGA,0.0641
6,AGCGACCA,0.0106
7,CTCTGAAA,0.0611
8,ATTAAGCC,-0.0321
9,GCAAATGC,-0.0569
10,ATCGAATC,0.107
11,CCGCCGAC,-0.141
12,AATTAGGT,0.112
13,CGGACGTA,-0.128
14,CGTTAGTC,0.179
15,ATCTCCCG,-0.17
16,ACTAGGAA,0.0898
17,AATCTCAC,-0.077
18,GTACGGGA,0.0263
19,AAAAGCTT,-0.128
20,CAGTACAA,0.0751
21,ACATGTCC,0.0585
22,GCCGGTAC,-0.138
23,AAGAGAGA,-0.095
24,GCGCATCC,-0.0827
25,GTATACAA,0.167

# 6 entries picked at random from the list so far, as already listed:
row,Sequence,PBM E-score
7,CAGACTAC,-0.108
16,ACTAGGAA,0.0898
9,AGGAAACA,0.176
22,CTAAAACC,0.0765
18,CTACGTGC,-0.0924
8,ATTAAGCC,-0.0321

# (further entries)

row,Sequence,PBM E-score
1,CCATTGGG,-0.192
2,GGCAGTAC,-0.0322
3,ATTTCAAG,0.132
4,AATTTAAG,0.106
5,AATTCCAG,0.135
6,CATCCTCA,0.0404
7,CAGTGATA,0.0339
8,GACAAAAA,0.315
9,CGTTGCGC,0.0582
10,AGCGAAAT,-0.0147
11,GCGAAAGA,-0.00795
12,GAATACAA,0.109
13,ACGCCCTC,-0.0612
14,ATTGGCTC,0.0983
15,CGAAGGTC,-0.265
16,ATCGGGGG,-0.314
17,ACGAGACA,0.0694
18,GTGTCAAA,0.0844
19,AAAGGCCG,-0.108

# — the supplement of paper PMC3334620
